Results deposited as PubChem BioAssay AID504764 (Drosophila RNAi Screening Center, 2011)

Purpose: 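Genome-wide screen for regulators of Notch-driven gene expression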 (primary screen)
System: Drosophila Kc167 cells
Reagent: long dsRNA against Drosophila genes
Duration: about 5 days (4 days dsRNA, then 24 h after transfection)
Treatment: transfection of constitutively active membrane-tethered Notch lacking the extracellular domain, read 24 h later
Detection: 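Light from a Notch-responsive E(spl)m3 luciferase reporter under active Notch, with control-promoter and no-Notch reporter wells to normalise; raw counts from paired wells a and b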
Scale: induced reporter light, run 1, well a and induced reporter light, run 1, well b: higher = more light from the Notch target reporter with active Notch; control promoter light, run 1, well a and control promoter light, run 1, well b: higher = more light from the viral control promoter (cell number, transfection, viability); uninduced reporter light, run 1, well a: higher = more light from the Notch target reporter without active Notch
Call rule: 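Hit if the duplicate-averaged log2 ratio of induced to control-promoter light gives a plate-wise z beyond ±2, or induced to uninduced beyond ±1.8; weak-control or discordant-duplicate wells dropped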
Meaning of the calls: active = modifier hit (raised or lowered Notch signal); inactive = not a hit
The deposit covers about 22,000 reagents; below is an unselected part of those that have a named target and a result. Of all reagents, 403 (1.9%) got an active call. 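Unnormalised raw counts per well; ratio z-scores behind the hit calls and whether each hit raises or lowers signal are not deposited.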 A plus sign joins genes that one reagent is predicted to hit. Not stated in the record: the amount of reagent.

gene | dsRNA | induced reporter light, run 1, well a | induced reporter light, run 1, well b | control promoter light, run 1, well a | control promoter light, run 1, well b | uninduced reporter light, run 1, well a | call
CG7071 + Muted | DRSC16189 | 1.74e5 | 1.78e5 | 2.04e5 | 2.29e5 | 15685 | inactive
Fer3 | DRSC16133 | 1.25e5 | 1.10e5 | 71600 | 74825 | 9000 | inactive
CG14355 | DRSC14818 | 1.61e5 | 1.74e5 | 1.11e5 | 1.17e5 | 9970 | inactive
CG11986 | DRSC14461 | 95315 | 1.18e5 | 84380 | 70435 | 9010 | inactive
CG8568 | DRSC20113 | 1.14e5 | 1.20e5 | 1.04e5 | 61315 | 9390 | inactive
ranshi | DRSC16564 | 83420 | 87525 | 58130 | 42915 | 6410 | inactive
CG12645 | DRSC17851 | 63915 | 70655 | 68345 | 83270 | 5420 | inactive
CG14323 | DRSC14802 | 2.69e5 | 2.80e5 | 2.65e5 | 2.83e5 | 25950 | inactive
nAChRalpha7 | DRSC20078 | 66480 | 80990 | 76035 | 1.19e5 | 9040 | inactive
nAChRalpha7 | DRSC20081 | 75685 | 1.02e5 | 73125 | 79500 | 9010 | inactive
TMEM216 | DRSC16378 | 1.05e5 | 1.25e5 | 98475 | 73720 | 12000 | inactive
CG15040 | DRSC19616 | 1.76e5 | 1.50e5 | 2.51e5 | 2.98e5 | 12750 | inactive
CG3281 | DRSC15470 | 1.90e5 | 1.85e5 | 1.28e5 | 1.51e5 | 11560 | inactive
CG7745 | DRSC07037 | 52360 | 36570 | 23855 | 20745 | 10040 | inactive
tank | DRSC00461 | 1.58e5 | 1.57e5 | 1.21e5 | 1.15e5 | 7940 | inactive
TwdlL | DRSC16042 | 2.05e5 | 1.80e5 | 2.63e5 | 2.57e5 | 12575 | inactive
Polr1F | DRSC02278 | 1.05e5 | 1.35e5 | 1.15e5 | 1.38e5 | 6232 | active
FAM21 | DRSC06623 | 94440 | 1.20e5 | 2.29e5 | 1.70e5 | 8550 | inactive
CG15080 | DRSC06511 | 86070 | 95755 | 1.38e5 | 1.40e5 | 10030 | inactive
CG12321 | DRSC14499 | 2.13e5 | 2.00e5 | 2.56e5 | 2.70e5 | 16680 | inactive
tinc | DRSC14798 | 2.10e5 | 1.93e5 | 2.19e5 | 2.19e5 | 13650 | inactive
tinc | DRSC14799 | 1.89e5 | 1.79e5 | 1.94e5 | 2.29e5 | 14560 | inactive
tinc | DRSC16308 | 58595 | 50640 | 50730 | 43495 | 6665 | inactive
tinc | DRSC16309 | 1.93e5 | 1.70e5 | 2.28e5 | 1.97e5 | 13940 | inactive
Srrm234 | DRSC07955 | 1.09e5 | 1.07e5 | 97730 | 95605 | 10085 | inactive
Srrm234 | DRSC08606 | 66035 | 74670 | 1.54e5 | 1.33e5 | 6340 | inactive
GramD1B | DRSC00426 | 1.23e5 | 1.35e5 | 1.85e5 | 1.41e5 | 11300 | inactive
GramD1B | DRSC00591 | 66590 | 70880 | 43495 | 46770 | 6015 | inactive
sba | DRSC13643 | 14500 | 12700 | 15250 | 14505 | 5425 | inactive
sba | DRSC17050 | 1.02e5 | 1.12e5 | 1.56e5 | 1.33e5 | 11425 | inactive
Brd | DRSC09685 | 1.80e5 | 1.88e5 | 1.75e5 | 1.60e5 | 6905 | inactive
Dis3 | DRSC16034 | 44835 | 45190 | 59455 | 62010 | 3165 | inactive
CkIIbeta | DRSC20230 | 69370 | 67090 | 73740 | 1.05e5 | 5930 | inactive
Fst | DRSC16491 | 1.60e5 | 1.42e5 | 1.11e5 | 1.10e5 | 11590 | inactive
ida | DRSC08163 | 1.23e5 | 1.04e5 | 1.98e5 | 1.52e5 | 7810 | inactive
Kap-alpha3 | DRSC16976 | 72585 | 78015 | 68720 | 76695 | 3220 | inactive
CG10182 | DRSC14202 | 1.77e5 | 1.88e5 | 2.41e5 | 2.40e5 | 17280 | inactive
Dnah3 | DRSC08130 | 1.99e5 | 2.44e5 | 2.05e5 | 1.65e5 | 15155 | inactive
Dnah3 | DRSC08513 | 1.81e5 | 1.34e5 | 1.31e5 | 1.64e5 | 7000 | inactive
CG33090 | DRSC01908 | 2.03e5 | 2.06e5 | 1.78e5 | 2.30e5 | 16965 | inactive
trem | DRSC15575 | 1.60e5 | 1.47e5 | 2.11e5 | 2.19e5 | 11305 | inactive
CG10822 | DRSC06005 | 48425 | 33200 | 42035 | 41265 | 5325 | inactive
Lsm10 | DRSC06250 | 1.54e5 | 1.44e5 | 2.04e5 | 2.20e5 | 13090 | inactive
Cyp308a1 | DRSC20238 | 1.05e5 | 1.02e5 | 1.24e5 | 1.34e5 | 11905 | inactive
Sfp26Ad | DRSC00904 | 1.17e5 | 1.38e5 | 2.14e5 | 2.10e5 | 9440 | inactive
Sod1 | DRSC11286 | 1.29e5 | 1.18e5 | 1.60e5 | 1.33e5 | 8428 | inactive
wor | DRSC03637 | 1.25e5 | 1.18e5 | 1.36e5 | 1.68e5 | 10235 | inactive
CG15534 | DRSC15070 | 1.26e5 | 1.19e5 | 1.52e5 | 1.43e5 | 9720 | inactive
CG15712 | DRSC06583 | 1.68e5 | 1.34e5 | 1.28e5 | 1.06e5 | 14550 | inactive
CG13380 + CG4174 | DRSC09988 | 1.22e5 | 1.06e5 | 61690 | 66950 | 9730 | inactive
CG13380 + CG4174 | DRSC10406 | 1.47e5 | 1.87e5 | 2.45e5 | 2.11e5 | 9050 | inactive
CG17329 | DRSC01926 | 1.14e5 | 1.01e5 | 1.76e5 | 1.86e5 | 10765 | active
CG14852 | DRSC14976 | 1.58e5 | 1.28e5 | 94380 | 93940 | 13595 | inactive
CG15056 | DRSC19630 | 82655 | 76395 | 92920 | 67105 | 9410 | inactive
Dip-B | DRSC16466 | 1.11e5 | 1.31e5 | 91755 | 86190 | 10092 | inactive
CG13216 | DRSC06338 | 1.09e5 | 1.27e5 | 1.66e5 | 1.40e5 | 11810 | inactive
CG8834 | DRSC07283 | 1.19e5 | 1.23e5 | 1.24e5 | 1.21e5 | 9190 | active
Vha14-1 | DRSC07571 | 1.02e5 | 84035 | 1.17e5 | 1.15e5 | 7650 | inactive
CkIIalpha-i1 | DRSC11115 | 1.73e5 | 1.52e5 | 2.41e5 | 2.18e5 | 5865 | inactive
grau | DRSC04691 | 35040 | 23565 | 31095 | 27715 | 1680 | inactive
CG10257 | DRSC05985 | 92935 | 95650 | 1.23e5 | 1.27e5 | 9245 | inactive
fd3F (retired record) + Crg-1 | DRSC17283 | 49030 | 57390 | 72530 | 79125 | 5655 | inactive
CG12310 | DRSC09878 | 1.82e5 | 1.95e5 | 2.38e5 | 2.69e5 | 8205 | inactive
Coq4 + frc | DRSC10381 | 1.39e5 | 1.00e5 | 2.04e5 | 1.47e5 | 4815 | inactive
Coq4 + frc | DRSC10382 | 2.40e5 | 1.95e5 | 2.91e5 | 2.73e5 | 7850 | inactive

Active calls, of those listed so far:
gene | dsRNA | induced reporter light, run 1, well a | induced reporter light, run 1, well b | control promoter light, run 1, well a | control promoter light, run 1, well b | uninduced reporter light, run 1, well a | call
Polr1F | DRSC02278 | 1.05e5 | 1.35e5 | 1.15e5 | 1.38e5 | 6232 | active
CG17329 | DRSC01926 | 1.14e5 | 1.01e5 | 1.76e5 | 1.86e5 | 10765 | active
CG8834 | DRSC07283 | 1.19e5 | 1.23e5 | 1.24e5 | 1.21e5 | 9190 | active
